# Measured values published in the supplement of paper PMC8728848.
# The list shows a part of the results.
# B1: SJCP3842 (Schistosoma japonicum) (protein)
# chain: MFKMRIINLVNISTVLLLINLLQTKSRLVGKENGFMLTVSIYGAQLSDKMTSVPVSWTIDYEDPEKSAFKKLVTDSCDTFSEYVKSQIPKGSVDGQCTSHIFQRPGSGSGVSISLTLSFIYVDVTQPDTVALKTELEKHFANFVTIHSHKITQAQFRINQKAIVIPTGDKDAIDGSKWKIIAIIALVALAIVVIGGFIYICVK
# Legend:
# Assay in all cases: glycan array binding signal (z-score within array); higher = stronger binding
# Conditions in all cases: glycan notation: IUPAC condensed, linker removed
# [1] = target: Gal(b1-3)GlcNAc(b1-2)Man(a1-3)[Gal(b1-3)GlcNAc(b1-2)Man(a1-6)]Man(b1-4)GlcNAc(b1-4)[Fuc(a1-6)]GlcNAc
# In short: (§1)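 The Consortium for Functional Glycomics database supplied 3228 glycan arrays, of which those lacking an available protein sequence were dropped. The binding signal, a within-array Z-score, was averaged across arrays of the same protein sequence and across linkers. Negative scores can be read as non-binding.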
# [2] = target: Gal(b1-3)GlcNAc(b1-2)Man(a1-3)[GlcNAc(b1-4)][Gal(b1-3)GlcNAc(b1-2)Man(a1-6)]Man(b1-4)GlcNAc(b1-4)GlcNAc
# In short: as §1
# [3] = target: Gal(b1-3)GlcNAc(b1-2)[Gal(b1-3)GlcNAc(b1-6)]Man(a1-6)[Gal(b1-3)GlcNAc(b1-2)Man(a1-3)]Man(b1-4)GlcNAc(b1-4)GlcNAc
# In short: as §1
# [4] = target: Gal(b1-3)GlcNAc(b1-3)Gal(b1-3)GlcNAc
# In short: as §1
# [5] = target: Gal(b1-3)GlcNAc(b1-3)Gal(b1-4)Glc
# In short: as §1
# [6] = target: Gal(b1-3)GlcNAc(b1-3)Gal(b1-4)GlcNAc
# In short: as §1
# [7] = target: Gal(b1-3)GlcNAc(b1-3)Gal(b1-4)GlcNAc(b1-2)Man(a1-3)[Gal(b1-3)GlcNAc(b1-3)Gal(b1-4)GlcNAc(b1-2)Man(a1-6)]Man(b1-4)GlcNAc(b1-4)GlcNAc
# In short: as §1
# [8] = target: Gal(b1-3)GlcNAc(b1-3)Gal(b1-4)GlcNAc(b1-2)[Gal(b1-3)GlcNAc(b1-3)Gal(b1-4)GlcNAc(b1-6)]Man(a1-6)[Gal(b1-3)GlcNAc(b1-3)Gal(b1-4)GlcNAc(b1-2)Man(a1-3)]Man(b1-4)GlcNAc(b1-4)[Fuc(a1-6)]GlcNAc
# In short: as §1
# [9] = target: Gal(b1-3)GlcNAc(b1-3)Gal(b1-4)GlcNAc(b1-3)Gal(b1-4)GlcNAc(b1-2)[Gal(b1-3)GlcNAc(b1-3)Gal(b1-4)GlcNAc(b1-3)Gal(b1-4)GlcNAc(b1-6)]Man(a1-6)[Gal(b1-3)GlcNAc(b1-3)Gal(b1-4)GlcNAc(b1-3)Gal(b1-4)GlcNAc(b1-2)Man(a1-3)]Man(b1-4)GlcNAc(b1-4)[Fuc(a1-6)]GlcNAc
# In short: as §1
# [10] = target: Gal(b1-3)GlcNAc(b1-3)Gal(b1-4)GlcNAc(b1-6)[Gal(b1-3)GlcNAc(b1-3)]Gal(b1-4)Glc
# In short: as §1
# [11] = target: Gal(b1-3)GlcNAc(b1-3)Gal(b1-4)[Fuc(a1-3)]GlcNAc
# In short: as §1
# [12] = target: Gal(b1-3)GlcNAc(b1-3)Gal(b1-4)[Fuc(a1-3)]GlcNAc(b1-6)[Gal(b1-3)GlcNAc(b1-3)]Gal(b1-4)Glc
# In short: as §1
# [13] = target: Gal(b1-3)GlcNAc(b1-3)GalNAc
# In short: as §1
# [14] = target: Gal(b1-3)GlcNAc(b1-6)Gal(b1-4)GlcNAc
# In short: as §1
# [15] = target: Gal(b1-3)GlcNAc(b1-6)GalNAc
# In short: as §1
# [16] = target: Gal(b1-3)GlcNAc(b1-6)[Gal(b1-3)]GalNAc
# In short: as §1
# [17] = target: Gal(b1-3)GlcNAc6S
# In short: as §1
# [18] = target: Gal(b1-3)[Fuc(a1-4)]GlcNAc
# In short: as §1
# [19] = target: Gal(b1-3)[Fuc(a1-4)]GlcNAc(b1-2)Man
# In short: as §1
# [20] = target: Gal(b1-3)[Fuc(a1-4)]GlcNAc(b1-2)Man(a1-3)[Gal(b1-3)[Fuc(a1-4)]GlcNAc(b1-2)Man(a1-6)]Man(b1-4)GlcNAc(b1-4)[Fuc(a1-6)]GlcNAc
# In short: as §1
# [21] = target: Gal(b1-3)[Fuc(a1-4)]GlcNAc(b1-3)Gal(b1-3)[Fuc(a1-4)]GlcNAc
# In short: as §1
# [22] = target: Gal(b1-3)[Fuc(a1-4)]GlcNAc(b1-3)Gal(b1-4)[Fuc(a1-3)]GlcNAc
# In short: as §1
# [23] = target: Gal(b1-3)[Fuc(a1-4)]GlcNAc(b1-6)GalNAc
# In short: as §1
# [24] = target: Gal(b1-3)[GlcNAc(b1-6)]GalNAc
# In short: as §1
# [25] = target: Gal(b1-3)[Neu5Ac(a2-6)]GalNAc
# In short: as §1
# [26] = target: Gal(b1-3)[Neu5Ac(a2-6)]GlcNAc(b1-4)Gal(b1-4)Glc
# In short: as §1
# [27] = target: Gal(b1-3)[Neu5Ac(b2-6)]GalNAc
# In short: as §1
# [28] = target: Gal(b1-4)Gal
# In short: as §1
# [29] = target: Gal(b1-4)GalNAc(a1-3)[Fuc(a1-2)]Gal(b1-4)GlcNAc
# In short: as §1
# [30] = target: Gal(b1-4)GalNAc(b1-3)[Fuc(a1-2)]Gal(b1-4)GlcNAc
# In short: as §1
# [31] = target: Gal(b1-4)Glc
# In short: as §1
# [32] = target: Gal(b1-4)Glc6S
# In short: as §1
# [33] = target: Gal(b1-4)GlcNAc
# In short: as §1
# [34] = target: Gal(b1-4)GlcNAc(a1-6)Gal(b1-4)GlcNAc
# In short: as §1
# [35] = target: Gal(b1-4)GlcNAc(b1-2)Man
# In short: as §1
# [36] = target: Gal(b1-4)GlcNAc(b1-2)Man(a1-3)Man(b1-4)GlcNAc(b1-4)GlcNAc
# In short: as §1
# [37] = target: Gal(b1-4)GlcNAc(b1-2)Man(a1-3)[Gal(b1-4)GlcNAc(b1-2)Man(a1-6)]Man(b1-4)GlcNAc(b1-4)GlcNAc
# In short: as §1
# [38] = target: Gal(b1-4)GlcNAc(b1-2)Man(a1-3)[Gal(b1-4)GlcNAc(b1-2)Man(a1-6)]Man(b1-4)GlcNAc(b1-4)[Fuc(a1-6)]GlcNAc
# In short: as §1
# [39] = target: Gal(b1-4)GlcNAc(b1-2)Man(a1-3)[Gal(b1-4)GlcNAc(b1-2)Man(a1-6)][Gal(b1-4)GlcNAc(b1-4)]Man(b1-4)GlcNAc(b1-4)[Fuc(a1-6)]GlcNAc
# In short: as §1
# [40] = target: Gal(b1-4)GlcNAc(b1-2)Man(a1-3)[Gal(b1-4)GlcNAc(b1-2)Man(a1-6)][GlcNAc(b1-4)]Man(b1-4)GlcNAc(b1-4)[Fuc(a1-6)]GlcNAc
# In short: as §1
# [41] = target: Gal(b1-4)GlcNAc(b1-2)Man(a1-3)[GlcNAc(b1-2)Man(a1-6)]Man(b1-4)GlcNAc(b1-4)GlcNAc
# In short: as §1
# [42] = target: Gal(b1-4)GlcNAc(b1-2)Man(a1-3)[GlcNAc(b1-4)][Gal(b1-4)GlcNAc(b1-2)Man(a1-6)]Man(b1-4)GlcNAc(b1-4)GlcNAc
# In short: as §1
# [43] = target: Gal(b1-4)GlcNAc(b1-2)Man(a1-3)[Man(a1-6)]Man(b1-4)GlcNAc(b1-4)GlcNAc
# In short: as §1
# [44] = target: Gal(b1-4)GlcNAc(b1-2)Man(a1-6)Man(b1-4)GlcNAc(b1-4)GlcNAc
# In short: as §1
# [45] = target: Gal(b1-4)GlcNAc(b1-2)Man(a1-6)[GlcNAc(b1-2)Man(a1-3)]Man(b1-4)GlcNAc(b1-4)GlcNAc
# In short: as §1
binder,measurement,setting,value
B1,glycan array binding signal (z-score),[1],-0.374
same,glycan array binding signal (z-score),[2],0.579
same,glycan array binding signal (z-score),[3],0.665
same,glycan array binding signal (z-score),[4],0.316
same,glycan array binding signal (z-score),[5],-0.764
same,glycan array binding signal (z-score),[6],-0.745
same,glycan array binding signal (z-score),[7],-0.467
same,glycan array binding signal (z-score),[8],1.25
same,glycan array binding signal (z-score),[9],1.37
same,glycan array binding signal (z-score),[10],0.751
same,glycan array binding signal (z-score),[11],-0.783
same,glycan array binding signal (z-score),[12],-1.27
same,glycan array binding signal (z-score),[13],-1.44
same,glycan array binding signal (z-score),[14],0.33
same,glycan array binding signal (z-score),[15],-0.46
same,glycan array binding signal (z-score),[16],-0.345
same,glycan array binding signal (z-score),[17],-0.283
same,glycan array binding signal (z-score),[18],-0.703
same,glycan array binding signal (z-score),[19],1.21
same,glycan array binding signal (z-score),[20],1.5
same,glycan array binding signal (z-score),[21],-1.29
same,glycan array binding signal (z-score),[22],-0.203
same,glycan array binding signal (z-score),[23],2.24
same,glycan array binding signal (z-score),[24],0.129
same,glycan array binding signal (z-score),[25],-1
same,glycan array binding signal (z-score),[26],-1.36
same,glycan array binding signal (z-score),[27],-1.08
same,glycan array binding signal (z-score),[28],-0.475
same,glycan array binding signal (z-score),[29],-0.717
same,glycan array binding signal (z-score),[30],-0.171
same,glycan array binding signal (z-score),[31],-1.59
same,glycan array binding signal (z-score),[32],0.436
same,glycan array binding signal (z-score),[33],0.516
same,glycan array binding signal (z-score),[34],-0.812
same,glycan array binding signal (z-score),[35],-0.281
same,glycan array binding signal (z-score),[36],-0.919
same,glycan array binding signal (z-score),[37],0.013
same,glycan array binding signal (z-score),[38],0.665
same,glycan array binding signal (z-score),[39],-0.855
same,glycan array binding signal (z-score),[40],0.433
same,glycan array binding signal (z-score),[41],-0.747
same,glycan array binding signal (z-score),[42],0.997
same,glycan array binding signal (z-score),[43],-0.204
same,glycan array binding signal (z-score),[44],1.27
same,glycan array binding signal (z-score),[45],-0.921

# A different layout for some results above:
binder | measurement | setting | value
B1 | glycan array binding signal (z-score) | [37] | 0.013
same | glycan array binding signal (z-score) | [38] | 0.665
same | glycan array binding signal (z-score) | [39] | -0.855
